Measured values taken from PMC8791842.
These are yes or no findings as the source states them, for the method shown. Binding seen in cells or lysates may run through a third protein.

Protein sequences, listed by entry. Tags and fused reporters are not part of them. Residues count along the entry.
UniProt P01024, residues 955-1303: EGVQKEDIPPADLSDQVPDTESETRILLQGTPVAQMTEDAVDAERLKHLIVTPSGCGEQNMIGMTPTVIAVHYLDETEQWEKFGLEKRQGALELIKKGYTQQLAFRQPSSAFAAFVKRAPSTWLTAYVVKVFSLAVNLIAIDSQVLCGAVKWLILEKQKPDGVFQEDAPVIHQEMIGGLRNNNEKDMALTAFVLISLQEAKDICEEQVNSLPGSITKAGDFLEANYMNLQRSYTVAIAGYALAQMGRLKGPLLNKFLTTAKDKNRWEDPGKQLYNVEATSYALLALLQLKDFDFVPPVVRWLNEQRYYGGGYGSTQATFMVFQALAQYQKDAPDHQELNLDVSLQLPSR
UniProt P02748, residues 22-559: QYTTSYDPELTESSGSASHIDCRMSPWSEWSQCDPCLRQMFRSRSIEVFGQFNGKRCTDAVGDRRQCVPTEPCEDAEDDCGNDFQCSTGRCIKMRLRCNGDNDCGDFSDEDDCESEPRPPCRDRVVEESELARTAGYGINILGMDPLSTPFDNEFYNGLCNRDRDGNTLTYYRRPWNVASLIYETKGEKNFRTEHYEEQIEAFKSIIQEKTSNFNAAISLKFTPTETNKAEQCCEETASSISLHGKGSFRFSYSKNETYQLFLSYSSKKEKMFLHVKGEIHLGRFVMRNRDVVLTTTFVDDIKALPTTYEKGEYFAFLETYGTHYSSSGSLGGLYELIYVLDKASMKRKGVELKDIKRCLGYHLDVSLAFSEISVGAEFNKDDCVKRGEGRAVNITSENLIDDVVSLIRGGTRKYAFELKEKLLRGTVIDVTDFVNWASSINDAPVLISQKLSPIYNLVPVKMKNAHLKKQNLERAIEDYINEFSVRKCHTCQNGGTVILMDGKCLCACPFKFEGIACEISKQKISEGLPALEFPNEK
UniProt P08962: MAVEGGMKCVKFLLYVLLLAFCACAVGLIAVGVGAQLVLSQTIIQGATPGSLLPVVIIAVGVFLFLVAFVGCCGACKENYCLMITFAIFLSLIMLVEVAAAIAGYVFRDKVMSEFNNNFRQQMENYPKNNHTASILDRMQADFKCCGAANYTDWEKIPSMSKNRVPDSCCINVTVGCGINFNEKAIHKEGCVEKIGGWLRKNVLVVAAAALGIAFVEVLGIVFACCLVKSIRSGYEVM
UniProt Q99816: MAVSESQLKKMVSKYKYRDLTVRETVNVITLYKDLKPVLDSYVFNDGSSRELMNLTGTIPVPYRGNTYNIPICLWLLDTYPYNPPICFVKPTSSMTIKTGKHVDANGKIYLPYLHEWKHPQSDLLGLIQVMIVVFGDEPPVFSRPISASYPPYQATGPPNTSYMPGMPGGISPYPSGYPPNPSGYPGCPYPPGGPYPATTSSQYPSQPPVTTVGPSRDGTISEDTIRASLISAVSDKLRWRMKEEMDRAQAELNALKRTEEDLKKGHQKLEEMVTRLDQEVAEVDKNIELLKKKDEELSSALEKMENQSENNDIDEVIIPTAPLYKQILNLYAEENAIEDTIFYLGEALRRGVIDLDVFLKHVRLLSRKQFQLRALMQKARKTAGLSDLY

What was measured:
[1] = target: C3dg (human (endogenous in urine extracellular vesicles)) (UniProt P01024); assay: co-IP; immunoaffinity isolation from 100 uL of pooled PEG-precipitated urine extracellular vesicles (6 C9 neoantigen-positive KTRs) in PBS; biotinylated anti-C3dg 15-39-06 (5 ug/mL) or pooled biotinylated anti-native C9 8-12-67 and 8-12-71 (4 ug/mL each), 4°C, 60 min; streptavidin magnetic beads; three PBS washes; eluted in 0.5% citric acid; immunoblot of eluates
[2] = target: complement C9 (human (endogenous in urine extracellular vesicles)) (UniProt P02748); assay: as above

binding [1] | binding [2] | Substance
no binding | – | CD63 (from UniProt P08962 1-238)
no binding | no binding | tumor susceptibility gene 101 protein (from UniProt Q99816 1-390)
